Values from PubChem BioAssay AID1259281 (Sanger Institute, 2017)
This is a random part of 794 deposited reagents. 22 of all reagents (2.8%) count as active. 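Calls rest on knock-down alone only; drug synergy scores play no part in them.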 Viability is capped at 1. Further read-outs or replicates are left out here. The record does not give: the amount of reagent, the time to read-out.

- Test: 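Identify essential genes and drug-enhancing knock-downs among kinases and common colorectal mutated genes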 (primary screen)
- Cells: human COLO678 colorectal cancer cell line
- Reagents: siRNA pool against human genes
- Challenge: anchor drugs at fixed doses: BYL719 1 µM, cetuximab 5 µg/ml or trametinib 10 nM; DMSO vehicle for the siRNA-alone arm
- Read-out: 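Surviving cells scaled to non-targeting siRNA control as replicate means; robust z-score for knock-down alone; synergy scores weigh knock-down with drug against the predicted combined effect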
- Scale: robust z-score, siRNA alone: higher = more viable cells; strongly negative means essential; viability, siRNA alone: higher = more surviving cells; synergy score with BYL719: higher = stronger synergistic killing with drug
- Active means: 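Called essential (knock-down alone) if knock-down by itself drops cell number to a robust z-score under -3; all others no change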
- Meaning of the calls: active = essential (knock-down alone); inactive = no change

| target gene | robust z-score, siRNA alone | viability, siRNA alone (fraction of control) | synergy score with BYL719 | activity call |
| --- | --- | --- | --- | --- |
| PIK3C3 (phosphatidylinositol 3-kinase catalytic subunit type 3) | 0.473 | 1 | 0.053 | inactive |
| CHEK2 (checkpoint kinase 2) | 0.0641 | 0.987 | 0.0327 | inactive |
| MET (MET proto-oncogene, receptor tyrosine kinase) | 0.473 | 1 | -0.0295 | inactive |
| PI4KA (phosphatidylinositol 4-kinase alpha) | -1.11 | 0.95 | -0.00669 | inactive |
| PIM3 (Pim-3 proto-oncogene, serine/threonine kinase) | 0.473 | 1 | -0.0625 | inactive |
| MYLK3 (myosin light chain kinase 3) | -1.74 | 0.93 | -0.0887 | inactive |
| ARID1A (AT-rich interaction domain 1A) | 0.473 | 1 | -0.0919 | inactive |
| BMX (BMX non-receptor tyrosine kinase) | 0.473 | 1 | -0.00254 | inactive |
| GNE | 0.473 | 1 | -0.0168 | inactive |
| GATA3 (GATA binding protein 3) | 0.473 | 1 | -0.089 | inactive |
| PNKP (polynucleotide kinase 3'-phosphatase) | -1.4 | 0.94 | 0.0385 | inactive |
| IRAK2 (interleukin 1 receptor associated kinase 2) | 0.0862 | 0.988 | 0.0136 | inactive |
| CKB (creatine kinase B) | 0.473 | 1 | -0.0769 | inactive |
| FGFRL1 (fibroblast growth factor receptor like 1) | 0.473 | 1 | -0.0869 | inactive |
| PDK1 (pyruvate dehydrogenase kinase 1) | 0.393 | 0.997 | -0.00918 | inactive |
| MAP3K20 (mitogen-activated protein kinase kinase kinase 20) | 0.473 | 1 | -0.0919 | inactive |
| PRKCE (protein kinase C epsilon) | 0.473 | 1 | -0.0919 | inactive |
| PRPS1L1 (phosphoribosyl pyrophosphate synthetase 1 like 1) | -1.82 | 0.927 | -0.113 | inactive |
| GK (glycerol kinase) | -0.215 | 0.978 | -0.111 | inactive |
| FXN (frataxin) | 0.473 | 1 | 0.00315 | inactive |

Taken from above:
Entry of PNKP (polynucleotide kinase 3'-phosphatase) in “synergy score with BYL719”: 0.0385
Entry of PI4KA (phosphatidylinositol 4-kinase alpha) in “synergy score with BYL719”: -0.00669
